The exact form of at least one protein or probe is not confirmed. Results from cells or extracts need not show a direct contact. For some of these results: Negatives hold for the conditions tested. For some of these results: At least one verdict rests on a figure or table, not on a statement of the authors. For some of these results: Tags and fusion partners may be left off the protein sequences shown.
Columns and labels:
Experiment in all cases: pull-down
Conditions in all cases: 3' biotin; pull-down: RNA on streptavidin beads blocked in 10 mM Tris-HCl pH 7.5, 100 mM KCl, 0.1 mM EDTA, 1 mM DTT, 0.01% Triton X-100, BSA, tRNA; extract 1 h at 30 °C; protein in an extract; label: biotin
[1] = target: RPL19 (Homo sapiens) (UniProt P84098)
[2] = target: RPL27a (Homo sapiens) (UniProt P46776)
[3] = target: T1, RBM14 (Homo sapiens) (UniProt Q96PK6)
T1 sequence (looked up, limits assumed): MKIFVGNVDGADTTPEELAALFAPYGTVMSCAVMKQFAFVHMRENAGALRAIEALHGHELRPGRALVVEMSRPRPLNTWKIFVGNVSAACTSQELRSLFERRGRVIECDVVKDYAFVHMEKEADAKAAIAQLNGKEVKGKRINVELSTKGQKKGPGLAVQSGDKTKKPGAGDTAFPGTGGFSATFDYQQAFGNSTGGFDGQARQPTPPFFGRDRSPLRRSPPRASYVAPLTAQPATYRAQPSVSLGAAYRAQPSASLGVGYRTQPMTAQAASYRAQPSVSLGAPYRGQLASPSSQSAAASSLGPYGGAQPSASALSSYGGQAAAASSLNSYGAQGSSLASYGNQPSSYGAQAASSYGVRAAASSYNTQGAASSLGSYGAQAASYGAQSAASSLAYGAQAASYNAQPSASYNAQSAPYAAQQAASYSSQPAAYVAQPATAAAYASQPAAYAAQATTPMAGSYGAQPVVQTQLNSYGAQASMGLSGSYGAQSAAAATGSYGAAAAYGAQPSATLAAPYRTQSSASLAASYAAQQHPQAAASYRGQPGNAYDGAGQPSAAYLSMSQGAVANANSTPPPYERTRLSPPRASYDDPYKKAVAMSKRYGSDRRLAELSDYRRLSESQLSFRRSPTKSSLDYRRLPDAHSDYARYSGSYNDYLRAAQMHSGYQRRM

[4] = target: Y-box-binding protein 3 (Homo sapiens) (UniProt P16989)
[5] = target: RPS2 (Homo sapiens) (UniProt P15880)
[6] = target: RPL26 (Homo sapiens) (UniProt P61254)
[7] = target: T2, hnRNPH (Homo sapiens) (UniProt P31943)
T2 sequence (looked up, limits assumed): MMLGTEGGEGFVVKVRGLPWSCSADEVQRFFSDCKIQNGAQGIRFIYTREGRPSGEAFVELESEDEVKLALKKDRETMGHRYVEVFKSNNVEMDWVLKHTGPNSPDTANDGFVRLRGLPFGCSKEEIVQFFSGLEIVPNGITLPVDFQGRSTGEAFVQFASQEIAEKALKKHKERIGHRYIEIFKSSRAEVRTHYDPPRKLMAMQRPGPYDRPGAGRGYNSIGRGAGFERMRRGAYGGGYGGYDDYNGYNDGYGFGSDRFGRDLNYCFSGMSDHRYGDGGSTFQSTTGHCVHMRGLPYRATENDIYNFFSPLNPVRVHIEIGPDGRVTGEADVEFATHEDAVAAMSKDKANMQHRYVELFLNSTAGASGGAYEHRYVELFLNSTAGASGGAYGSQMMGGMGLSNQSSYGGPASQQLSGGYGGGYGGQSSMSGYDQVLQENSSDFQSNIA

[8] = target: T3, hnRNPF (Homo sapiens) (UniProt P52597)
T3 sequence (looked up, limits assumed): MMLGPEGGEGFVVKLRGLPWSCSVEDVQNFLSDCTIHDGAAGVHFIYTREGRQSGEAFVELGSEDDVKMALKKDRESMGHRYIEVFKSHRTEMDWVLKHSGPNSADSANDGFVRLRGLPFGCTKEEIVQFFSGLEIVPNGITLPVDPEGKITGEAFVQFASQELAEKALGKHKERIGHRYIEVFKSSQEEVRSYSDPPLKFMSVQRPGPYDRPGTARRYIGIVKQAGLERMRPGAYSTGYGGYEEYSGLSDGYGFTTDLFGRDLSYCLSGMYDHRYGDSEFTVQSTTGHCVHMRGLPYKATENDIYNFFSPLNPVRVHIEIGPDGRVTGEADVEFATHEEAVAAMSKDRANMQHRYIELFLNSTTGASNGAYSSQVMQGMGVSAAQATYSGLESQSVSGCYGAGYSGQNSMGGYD

[9] = target: hnRNPA3 (Homo sapiens) (UniProt P51991)
[10] = target: RPS6 (Homo sapiens) (UniProt P62753)
[11] = target: RPL14 (Homo sapiens) (UniProt P50914)
[12] = target: SRSF1 (native) (Homo sapiens) (UniProt Q07955)
[13] = target: U2AF65 (native) (Homo sapiens) (UniProt P26368)

“AGCCGUAGACUGAGCGAAGACCGAGCUUGU [ARPC2 mut]”: no binding [1]; no binding [2]; no binding [3]. “AGCCGUAGACUGAGCGAAGACCGAGCUUGU [ARPC2 mut]”: no binding [4]; no binding [5]; no binding [6]. “AGCCGUAGACUGAGCGAAGACCGAGCUUGU [ARPC2 mut]”: no binding [7]; no binding [8]; binds [9]. “AGCCGUAGACUGAGCGAAGACCGAGCUUGU [ARPC2 mut]”: no binding [10]; no binding [11]; no binding [12]. “AGCCGUAGACUGAGCGAAGACCGAGCUUGU [ARPC2 mut]”: no binding [13].

From paper PMC4041461
